Data reported in PMC12036977.

Target: Membrane frizzled-related protein (MFRP), native bovine RPE (bovine (endogenous in RPE))
Test: affinity purification with mass spectrometry; detergent-free native bovine RPE membranes solubilized with SMA copolymers (lipid nano-disks); anti-MFRP resins vs. normal-IgG control resins; quantitative MS

B1: Inward rectifier potassium channel 13 (KCNJ13), native bovine RPE (protein, UniProt E1BN00 1-360)
chain: MDGSHCKVIAPLLTERHQRMVTKDGHSTLQMDGAQTGLAYLRDAWGILMDMRWRWMMLVFSASFVIHWLVFAVLWYILAEMNGDLGLDHDAPPENHTICVKYITSFTAAFSFSLETQLTIGYGTMFPSGDCPSAIALLAIQMLLGLMLEAFITGAFVAKIARPKNRAFSIRFTDLAVVAHIDGKPNLIFQVANTRPSPLTNVRVSAVLYQERENGKLYQTSVDFHLDGISSEECPFFIFPLTYYHSIIPSSPLATLLQHENPPHFELVVFLSAMQEGTGETCQRRTSYLPSEIMLHHCFASLLARGSKGEYQIKMENFDKTTPEFQTPLVSKSPNRTDLDIHINGQSIDNFQISETGLTE
For B1, the binding was “binds”.

Results are given in words; binding and its absence hold for the method and conditions named. In cells and extracts the contact can be indirect. These calls come from enrichment with a bait or labelling near it, and not all partners need be listed.
